# From patent US20070185028A1, “Compositions and methods for treatment of protein misfolding and protein aggregation diseases” (priority 2004, published 2007)
# Several values for one entry are separate records, joined by “and”; a condition that tells them apart may be missing. Equal entries are not always repeated. Some of these results come from one statement about several compounds together. Some compounds share one range, which may span the group rather than tell each member.
# Assays:
# β2-microglobulin (β2m) = molecular target: T1, β2-microglobulin (β2m) (Homo sapiens, UniProt P61769); experiment: β2-microglobulin fibrillation ThT assay; assay type: biochemical; conditions: 29 μM β2m; for decrease in ThT fluorescence of β2m: 5.8 μM, 37° C.; for decrease in ThT fluorescence of β2m, HG derived peptides: 5.8 μM truncated peptide, after 48 hrs
# T1 construct: purchased MP Biomedical
# Description: Addition of 5.8 μM αB crystallin peptides, ST, DR, LT, HG, and ER decreased the ThT fluorescence of β2m by 40-64%. When the concentration of the αB crystallin peptides was increased to 29 μM and 145 μM, no further decrease in ThT fluorescence was observed. The negative control peptide AT1 had no effect on β2m fibrillation even at a concentration as high as 290 μM. All five αB crystallin peptides inhibited β2m fibrillation at sub-stoichometric and stoichometric concentrations (5.8 μM and 29 μM).
# The Thioflavin T (ThT) fluorescence of β2m in the presence of varying concentrations of αB crystallin peptides and controls was measured. […] When the concentration of the peptides was increased to 29 μM (1:1::peptide:β2m), the αB crystallin peptides decreased the ThT fluorescence by 35-65%. When the concentration of the peptides was increased further to 145 μM ([…]), the αB crystallin peptides decreased the ThT fluorescence by 13-27%. […] The formation and inhibition of β2-microglobulin fibrils was verified microscopically.
# β2-microglobulin fibrillation ThT assays were performed as described previously. Raman et al., Biochem J 392:573-81, 2005; Ivanova et al., Proc Natl Acad Sci USA 101:10584-9, 2004. Peptides were dissolved to 2 mM in 0.25% DMSO and diluted accordingly, while β2-microglobulin was dissolved in 25 mM sodium acetate, 25 mM sodium phosphate, pH 2.4. For the 5:1::peptide:β2-microglobulin assay, 10 μL of 430 μM peptide was mixed with 10 μL of 86 μM β2-microglobulin, 7 μl of 25 mM sodium acetate, 25 mM sodium phosphate, pH 2.4 and 3 μL of 1 mM ThT. For the 1:1::peptide:β2-microglobulin assay, 10 μL of 86 μM peptide was mixed with 10 μL of 86 μM (2-microglobulin, 7 μl of 25 mM sodium acetate, 25 mM sodium phosphate, pH 2.4 and 3 μL of 1 mM ThT. For the 1:5::peptide:β2-microglobulin assay, 10 μL of 17.2 μM peptide was mixed with 10 μL of 86 μM β2-microglobulin, 7 μl of 25 mM sodium acetate, 25 mM sodium phosphate, pH 2.4 and 3 μL of 1 mM ThT. ThT fluorescence was measured using a Perkin Elmer Victor^3 V plate reader. Assays were performed in 384-well fluorescence plates in duplicates or triplicates. Samples were incubated at 37° C. ThT fluorescence was measured continuously for 180 minutes. The effect of the peptides and APS was calculated as percentage fibril formation relative to β2-microglobulin alone (100%) at the end of 180 minutes.
# transthyretin (TTR) = molecular target: T2, transthyretin (TTR) (Homo sapiens, UniProt P02766); experiment: Transthyretin fibrillation ThT assay; assay type: biochemical; conditions: for decrease in ThT fluorescence of TTR: 16 μM TTR; for decrease of effect on TTR fibril inhibition on increasing the concentration: 3.2 μM to 16 μM truncated peptide
# T2 construct: purchased Sigma-Aldrich
# Description: The effect of the five αB crystallin peptides ST, DR, HG, LT, and ER on TTR fibrillation was measured using the ThT fluorescence assay (FIG. 26). The formation and inhibition of TTR fibrils was qualitatively verified by fluorescence and bright-field microscopy. The concentration of the peptides was varied relative to TTR to establish a concentration curve. In addition, the effect of a control neuropeptide (AT1) with no TTR fibril inhibition activity was measured and compared to the effect of the αB crystallin peptides on TTR fibril formation. The ThT fluorescence of 16 μM TTR alone incubated at 37° C. for 4 hrs, increased from ˜15,000 to ˜45,000 RFU. Addition of 3.2 μM αB crystallin peptides, ST, DR, LT, and HG decreased the ThT fluorescence of TTR by 15-70%. In contrast, 3.2 μM ER had no effect on TTR fibril formation. Increasing the concentration of the ER peptide to 16 μM decreased the ThT fluorescence of TTR by 60%. The negative control peptide AT1 had no effect on TTR fibrillation even at a concentration as high as 160 μM. All five αB crystallin peptides inhibited TTR fibrillation at sub-stoichometric and stoichometric concentrations (3.2 μM and 16 μM).
# The Thioflavin T (ThT) fluorescence of TTR in the presence of varying concentrations of αB crystallin peptides and controls was measured. […] When the concentration of the peptides was increased to 16 μM (1:1::peptide:TTR), the αB crystallin peptides ST, DR, HG, LT and ER decreased the ThT fluorescence by 8-72%. When the concentration of the peptides was increased further to 80 μM ([…]), all of the five αB crystallin peptides ST, DR, HG, LT, and ER decreased the ThT fluorescence by 40-70%. […] The formation and inhibition of TTR fibrils was verified microscopically.
# Transthyretin fibrillation ThT assays were performed as described previously. Hurshman et al., Biochemistry 43:7365-81, 2004; O'Nuallain and Wetzel, Proc Natl Acad Sci USA 99:1485-90, 2002. Peptides were dissolved to 2 mM in 0.25% DMSO and diluted accordingly, while TTR was dissolved in 200 mM KCl, 2 mM EDTA, 5 mM PBS, 200 mM sodium acetate, pH 4.4. For the 5::peptide:TTR assay, 10 μL of 160 μM peptide was mixed with 10 μL of 32 μM TTR, and 1 μL of 1 mM ThT. For the 1:1::peptide:TTR assay, 10 μL of 32 μM peptide was mixed with 10 μL of 32 μM TTR and 1 μL of 1 mM ThT. For the 1:5::peptide:TTR assay, 10 μL of 6.4 μM peptide was mixed with 10 μL of 32 μM TTR and 1 μL of 1 mM ThT. ThT fluorescence was measured using a Perkin Elmer Victor^3 V plate reader. Assays were performed in 384-well fluorescence plates in duplicates or triplicates. Samples were incubated at 37° C. ThT fluorescence was measured continuously for 150 minutes. The effect of the peptides and APS was calculated as percentage fibril formation relative to TTR alone (100%) at the end of 150 minutes.
# [1] = 3.2 μM truncated peptide, after 48 hrs
# [2] = 16 μM truncated peptide (1:1::peptide:TTR)
Substance,decrease in ThT fluorescence of TTR (transthyretin (TTR); 16 μM (1:1)),decrease in ThT fluorescence of TTR (transthyretin (TTR); 80 μM),"decrease in ThT fluorescence of β2m, HG derived peptides (β2-microglobulin (β2m))","decrease in ThT fluorescence of TTR, HG derived peptides (transthyretin (TTR); [1])","decrease in ThT fluorescence of TTR, HG derived peptides (transthyretin (TTR); [2])",other results
DRFSVNLDVKHFS,8-72%,40-70%,,,,"decrease in ThT fluorescence of β2m (β2-microglobulin (β2m); listed as DR): 40-64% and 40-65%; decrease in ThT fluorescence of TTR (transthyretin (TTR); 3.2 μM, 37° C., listed as DR): 15-70% and 15-71%"
EERQ,,,44-100%,44-95%,,decrease of effect on TTR fibril inhibition on increasing the concentration (transthyretin (TTR)): 5-10%
ERTIPITRE,,40-70%,,,,decrease in ThT fluorescence of β2m (β2-microglobulin (β2m); listed as ER): 40-64% and 40-65%
HGKH,,,44-100%,44-95%,54-96%,
HGKHEE,,,44-100%,44-95%,,decrease of effect on TTR fibril inhibition on increasing the concentration (transthyretin (TTR)): 5-10%
HGKHEERQ [Peptide 51],,,44-100%,44-95%,54-96%,
HGKHEERQDE,8-72%,40-70%,,,,"decrease in ThT fluorescence of β2m (β2-microglobulin (β2m); listed as HG): 40-64% and 40-65%; decrease in ThT fluorescence of TTR (transthyretin (TTR); 3.2 μM, 37° C., listed as HG): 15-70% and 15-71%"
KHEE,,,44-100%,44-95%,54-96%,
KHEERQ,,,44-100%,44-95%,54-96%,
LTITSSLSSDGV,8-72%,40-70%,,,,"decrease in ThT fluorescence of β2m (β2-microglobulin (β2m); listed as LT): 40-64% and 40-65%; decrease in ThT fluorescence of TTR (transthyretin (TTR); 3.2 μM, 37° C., listed as LT): 15-70% and 15-71%"
RQDE,,,44-100%,44-95%,54-96%,
STSLSPFYLRPPSFLRAP,8-72%,40-70%,,,,"decrease in ThT fluorescence of β2m (β2-microglobulin (β2m); listed as ST): 40-64% and 40-65%; decrease in ThT fluorescence of TTR (transthyretin (TTR); 3.2 μM, 37° C., listed as ST): 15-70% and 15-71%"
